Publication PMC7819943, “Rice protein-binding microarrays: a tool to detect cis-acting elements near promoter regions in rice”
This is one part of the list.

Each sequence was assayed against T1, OsSMF1 (Oryza sativa, UniProt Q6ZLB0 1-436) (assay: protein-binding microarray (RPBM); PBS, 2% BSA, 51.3 ng/ul salmon testes DNA, 50 uM zinc acetate, 200 nM TF, 25 C, 1 h; high values mean tight binding). Details: protein: recombinant; tags: N-terminal polyhistidine and DsRed monomer fusion (pET32a); chain copies: 2; label: CyDye5-dUTP incorporated in the synthesized complementary strand; 3' TTTTT single-stranded linker to array surface; dsDNA, one strand shown.
T1 sequence: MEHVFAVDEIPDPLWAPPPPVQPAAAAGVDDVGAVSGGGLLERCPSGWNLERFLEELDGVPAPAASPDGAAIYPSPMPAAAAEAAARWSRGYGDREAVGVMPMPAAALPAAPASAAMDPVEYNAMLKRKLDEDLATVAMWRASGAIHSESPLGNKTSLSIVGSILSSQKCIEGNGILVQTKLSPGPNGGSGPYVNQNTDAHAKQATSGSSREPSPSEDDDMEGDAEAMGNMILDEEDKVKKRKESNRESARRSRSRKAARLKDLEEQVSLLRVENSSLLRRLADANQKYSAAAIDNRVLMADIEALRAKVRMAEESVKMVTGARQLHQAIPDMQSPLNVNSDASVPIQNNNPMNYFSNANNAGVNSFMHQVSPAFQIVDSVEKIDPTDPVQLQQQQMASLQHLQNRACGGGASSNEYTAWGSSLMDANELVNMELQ
Summary of the method: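 The binding signal is fluorescence intensity per feature, in arbitrary units, read on an Axon 4000B scanner. Polyhistidine- and DsRed-tagged transcription factors (N-terminal fusions) from E. coli BL21-CodonPlus were purified on Ni–NTA and applied at 200 nM for 1 h at 25 °C to a double-stranded, BSA-blocked custom Agilent array in buffer with 50 µM zinc acetate.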
With “ATGAACGTGCGTTGGTGTGTGCGTGGACAAATACCTAACTCGGAGTCACCTAGTGCAG” the binding signal was 6730 fluorescence intensity (a.u.). “ATCAAATGATTCAGTACCTATTGCTACTATCTTCATTCCACGGAGTCACCTAGTGCAG” was tested, and the binding signal was 3760 fluorescence intensity (a.u.). For “CTTCACACCACACATTCTAAGACACGTACGCATGCCTGTACGGAGTCACCTAGTGCAG”, the binding signal was 7660 fluorescence intensity (a.u.). For “GGTAGCCTAGCTACACAAGAAAGAGAAGGAGGAGGAGAAGCGGAGTCACCTAGTGCAG”, the binding signal was 29800 fluorescence intensity (a.u.). In the case of “TGGCAGACGGGCAGTCCCATAAATTAATGTATCACTGCACCGGAGTCACCTAGTGCAG”, the binding signal is reported as 7040 fluorescence intensity (a.u.). “GATTGCTAACTTGCTTCCTCCGTCCGCGGCCACCACTTTCCGGAGTCACCTAGTGCAG” was tested, and the binding signal was 27000 fluorescence intensity (a.u.). With “GTTGTGTATGGGCACCAACACCTTGTCATTGGCACTTTGCCGGAGTCACCTAGTGCAG” the binding signal was 3690 fluorescence intensity (a.u.). “CCCAGTTTGGAGTAACGCCCACGTCACGCTCGCGGCTCACCGGAGTCACCTAGTGCAG” was tested, and the binding signal was 20000 fluorescence intensity (a.u.). For “GACGCCGACGTCGCGCCACCGTGGCGCGGCACCGACACCGCGGAGTCACCTAGTGCAG”, the binding signal was 3730 fluorescence intensity (a.u.). For “GCAAGCAGTTCAGTGGATCACATTACACGTCGCCCTGATTCGGAGTCACCTAGTGCAG”, the binding signal was 4460 fluorescence intensity (a.u.). In the case of “TCAGGAGGAAGCCTACGGGCCCTCGCACCGTCAGCATCACCGGAGTCACCTAGTGCAG”, the binding signal is reported as 7490 fluorescence intensity (a.u.). In the case of “TGTGTGTGTATATATATGTAGCCTGTTCGCACATCATCTTCGGAGTCACCTAGTGCAG”, the binding signal is reported as 3910 fluorescence intensity (a.u.). “CCCAGACCAACCAACCGGTCGCCGAAAGCCCACCACACACCGGAGTCACCTAGTGCAG” was tested, and the binding signal was 3420 fluorescence intensity (a.u.). With “TCGCTCACCACTCCGACTCCGACGCCACCTCCTGCAGCGGCGGAGTCACCTAGTGCAG” the binding signal was 3180 fluorescence intensity (a.u.). In the case of “CCCGCGCCGCGGCGGATCGATGGAGCTGTTCGAGCGCGCGCGGAGTCACCTAGTGCAG”, the binding signal is reported as 3160 fluorescence intensity (a.u.). “CGTCTGCCATGTATGCAAATACGACAGGCATTCTTGGGGTCGGAGTCACCTAGTGCAG” was tested, and the binding signal was 4260 fluorescence intensity (a.u.). “GTCTTTAAGCTGGCTACGTCATCGCACAATTTGATCGTTTCGGAGTCACCTAGTGCAG” was tested, and the binding signal was 11000 fluorescence intensity (a.u.). For “ACTGCTTCGTCGTAACCCTTAGCGAGTAACGTGGCATATTCGGAGTCACCTAGTGCAG”, the binding signal was 3790 fluorescence intensity (a.u.). In the case of “GTCCCCAACTCTGACTGTCCCCACGTTTTCAGGCTGTTTGCGGAGTCACCTAGTGCAG”, the binding signal is reported as 4300 fluorescence intensity (a.u.). For “AAATAATTTATGAATAAAACTTTTATCTACGTGTTCTTAACGGAGTCACCTAGTGCAG”, the binding signal was 4110 fluorescence intensity (a.u.). “TTGTCCTGCGTTAACCAAAGAGCAAGATATCTGACGGAGGCGGAGTCACCTAGTGCAG” was tested, and the binding signal was 3820 fluorescence intensity (a.u.). With “TCCTCCTAACCTCCAGCTATAAAACCAGCTCGCCCCAGATCGGAGTCACCTAGTGCAG” the binding signal was 3360 fluorescence intensity (a.u.). For “CGATTATTCCTGATGTTGCAATTGCCATCCTCCGTCACCCCGGAGTCACCTAGTGCAG”, the binding signal was 3380 fluorescence intensity (a.u.). With “TATACTGCCTTGTTCTATAAATCACCGCAGAACACGTGTTCGGAGTCACCTAGTGCAG” the binding signal was 4250 fluorescence intensity (a.u.). For “GTTGGAGACCCTCTATGCTATTTGCTTCTTCCTCAGTTTGCGGAGTCACCTAGTGCAG”, the binding signal was 3840 fluorescence intensity (a.u.). “CGGCGGCTTCTTGTTGGTGACGCCGCACGGCATGGTTGATCGGAGTCACCTAGTGCAG” was tested, and the binding signal was 5370 fluorescence intensity (a.u.). “ATTCAAGATTGGATGAAGGATGACACCTCGACGTAGATATCGGAGTCACCTAGTGCAG” was tested, and the binding signal was 4000 fluorescence intensity (a.u.). In the case of “GTTACAGCATCATCATTTACGTTGTGACTCGTGTAGTGGGCGGAGTCACCTAGTGCAG”, the binding signal is reported as 4670 fluorescence intensity (a.u.). For “TAGTTAATAAAAGTCAAAATGAAGTCACAATTTGCCACGTCGGAGTCACCTAGTGCAG”, the binding signal was 8180 fluorescence intensity (a.u.). With “AATATTGGTAGTGCCAAAACCTAGGCAAGTTTTGGTACTACGGAGTCACCTAGTGCAG” the binding signal was 3230 fluorescence intensity (a.u.). With “AGATTAAGGAGTCCTCCATCTATATAATCCAATCTATCTCCGGAGTCACCTAGTGCAG” the binding signal was 21400 fluorescence intensity (a.u.). For “CGCAGTTTACGCAAGGGCACGCTGCTGCTGACACAGTAGGCGGAGTCACCTAGTGCAG”, the binding signal was 5050 fluorescence intensity (a.u.). In the case of “AAGAGGAGGATTACTCGCCACGCGAAGCGGAGCTCGCCGCCGGAGTCACCTAGTGCAG”, the binding signal is reported as 4090 fluorescence intensity (a.u.). In the case of “CCTCTCTGTGACTGCCGAGGCTTGGACTGTGTTCTCGCATCGGAGTCACCTAGTGCAG”, the binding signal is reported as 24000 fluorescence intensity (a.u.). In the case of “TCTTTCGTCGCAATGCCACGCCATCATCGATCCCTTTCCTCGGAGTCACCTAGTGCAG”, the binding signal is reported as 14800 fluorescence intensity (a.u.). With “GAGTTCTTTTCTCATGCATCAGCAGAGAAAGCACTCCAGACGGAGTCACCTAGTGCAG” the binding signal was 3380 fluorescence intensity (a.u.). For “AAGAGACCTGTTTATTAGCGTCACTGACAGTCGTTGTCACCGGAGTCACCTAGTGCAG”, the binding signal was 3660 fluorescence intensity (a.u.). For “TATAGAAATTGCTGATTGGTTACGTCGCAACTACTCTGACCGGAGTCACCTAGTGCAG”, the binding signal was 3520 fluorescence intensity (a.u.). For “ACTTTGTACTAGTTTTCATATTATGTCATTCTTTAACCATCGGAGTCACCTAGTGCAG”, the binding signal was 3650 fluorescence intensity (a.u.). In the case of “CCTTTGTCAATCTCCACCACATCATCTCCTACCTCGTCCTCGGAGTCACCTAGTGCAG”, the binding signal is reported as 7400 fluorescence intensity (a.u.). For “CGAGATGTAAAAGTTGAATATGAAATTGCATATTTGTGGACGGAGTCACCTAGTGCAG”, the binding signal was 3820 fluorescence intensity (a.u.). “TGACAAAGCAAAGTCTTCTACAAAAGTATTAAACTGACCTCGGAGTCACCTAGTGCAG” was tested, and the binding signal was 15800 fluorescence intensity (a.u.).
